The structures given here were assigned with low confidence; some may be wrong.
Key:
[1] = target: recombinant His-tag Wip1(2-420) protein (amino acids #2-420) (Homo sapiens (Human), UniProt O15297); experiment: Wip1(2-420) phosphatase enzyme FDP assay; conditions: read-out: WIP1 (Truncated 2-420) FDP Assay: IC50; fluorescein diphosphate (FDP) substrate, RT 2 hours, fluorescence Ex485/Em535
Method: (§1) The Human Wip1 (2-420, aa 2-420) or Wip1 full length (aa 1-605) DNA sequence was codon optimized and synthesized by Genscript for insect cell expression. The open reading frame of Wip1(2-420) with a N-terminal-His6 affinity tag followed by a TEV cleavage site was subcloned sites into the pFastBac1 expression vector. The recombinant bacmid DNA was transfected in Sf9 insect cells for baculovirus production. After 72 hours infection, the Sf9 cells were harvested by centrifugation and resuspended in lysis buffer containing 50 mM Tris/HCl, pH 8.0, 500 mM NaCl, 20% glycerol, Benzonase 0.5% CHAPS and Roche cOmplete™ EDTA free protease inhibitors. Cells were disrupted with microfluidizer and the debris was removed by centrifugation at 185,000 g for 1 hour. The supernatant was subjected to HisTrap FF for affinity purification. […]
(§2) Test compounds (252 mM stock in DMSO) were diluted 3 folds in series in DMSO and 1.2 μl per well were added into 384-well polypropylene black plates (Nunc). […] The plate was centrifuged at 1,200 rpm (Eppendorf 5810R Plate centrifuge) for 1 minute and fluorescence intensity (Ex485/Em535) was measured on Perkin Elmer Victor Reader. EC50 values were calculated using either Prism (GraphPad) or ActivityBase software (IDBS), The IC50 results are provided in Table M.

Chains of the proteins cited; added tags and fusions are not shown. Residues count along the entry.
UniProt O15297, whole entry: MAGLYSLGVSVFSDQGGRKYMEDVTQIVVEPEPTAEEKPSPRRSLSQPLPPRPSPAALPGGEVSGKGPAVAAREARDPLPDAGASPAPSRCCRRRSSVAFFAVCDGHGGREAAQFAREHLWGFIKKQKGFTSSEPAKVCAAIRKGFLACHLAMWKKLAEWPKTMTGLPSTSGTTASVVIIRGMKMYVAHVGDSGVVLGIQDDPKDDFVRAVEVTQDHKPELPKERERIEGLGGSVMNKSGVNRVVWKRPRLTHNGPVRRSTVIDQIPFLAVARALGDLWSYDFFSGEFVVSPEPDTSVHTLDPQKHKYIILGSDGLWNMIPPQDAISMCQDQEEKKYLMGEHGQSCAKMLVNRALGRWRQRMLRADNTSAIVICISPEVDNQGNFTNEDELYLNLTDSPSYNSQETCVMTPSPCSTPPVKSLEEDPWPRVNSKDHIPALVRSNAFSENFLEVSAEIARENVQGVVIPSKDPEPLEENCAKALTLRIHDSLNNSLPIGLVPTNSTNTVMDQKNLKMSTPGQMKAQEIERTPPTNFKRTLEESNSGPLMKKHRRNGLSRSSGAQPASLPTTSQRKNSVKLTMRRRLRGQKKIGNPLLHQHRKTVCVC
UniProt O15297, 2-420 limits assumed: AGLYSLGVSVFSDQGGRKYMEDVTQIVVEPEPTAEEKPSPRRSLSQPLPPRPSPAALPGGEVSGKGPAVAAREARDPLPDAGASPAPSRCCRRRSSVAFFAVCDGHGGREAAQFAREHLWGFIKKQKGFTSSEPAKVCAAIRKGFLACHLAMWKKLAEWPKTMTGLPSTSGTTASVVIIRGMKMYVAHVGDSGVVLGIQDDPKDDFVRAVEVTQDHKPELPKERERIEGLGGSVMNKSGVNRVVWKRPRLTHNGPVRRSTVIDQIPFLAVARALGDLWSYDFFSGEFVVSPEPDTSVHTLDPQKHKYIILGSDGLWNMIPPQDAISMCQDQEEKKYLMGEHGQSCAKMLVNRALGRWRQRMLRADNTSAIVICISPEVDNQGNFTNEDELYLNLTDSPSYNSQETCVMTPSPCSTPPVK

[2] = target: recombinant His-tag Wip1 full length protein (amino acids #1-605) (Homo sapiens (Human), UniProt O15297); experiment: Wip1 full length phosphatase enzyme FDP assay; conditions: read-out: WIP1 (Full-Length) FDP Assay: IC50; fluorescein diphosphate (FDP) substrate, RT 2 hours, fluorescence Ex485/Em535
Method: as §1, §2

Compound: CC[C@H](Nc1cc(Cl)cnc1C)c1ccc(C(=O)N[C@@H](CC2CCCC2)C(=O)N[C@@H]2CC2(F)F)s1 [Compound 47, (2S)-2-({5-[(1S)-1-[(5-chloro-2-methylpyridin-3-yl)amino]propyl]thiophen-2-yl}formamido)-3-cyclopentyl-N-[(1R)-2,2-difluorocyclopropyl]propanamide]
- IC50 [1]: 6 nM
- IC50 [2]: 8 nM
